Our source for the log2 fold change values is the supplement of paper PMC12819154, “High-throughput peptide-centric local stability assay extends protein–ligand identification to membrane proteins, tissues and bacteria” (Nature Structural & Molecular Biology, 2025).

Sequences of proteins named here, by UniProt entry; tags and fusion partners are left off. A change or cut given only in a name is not applied to a line headed by its entry.
UniProt Q9H8E8: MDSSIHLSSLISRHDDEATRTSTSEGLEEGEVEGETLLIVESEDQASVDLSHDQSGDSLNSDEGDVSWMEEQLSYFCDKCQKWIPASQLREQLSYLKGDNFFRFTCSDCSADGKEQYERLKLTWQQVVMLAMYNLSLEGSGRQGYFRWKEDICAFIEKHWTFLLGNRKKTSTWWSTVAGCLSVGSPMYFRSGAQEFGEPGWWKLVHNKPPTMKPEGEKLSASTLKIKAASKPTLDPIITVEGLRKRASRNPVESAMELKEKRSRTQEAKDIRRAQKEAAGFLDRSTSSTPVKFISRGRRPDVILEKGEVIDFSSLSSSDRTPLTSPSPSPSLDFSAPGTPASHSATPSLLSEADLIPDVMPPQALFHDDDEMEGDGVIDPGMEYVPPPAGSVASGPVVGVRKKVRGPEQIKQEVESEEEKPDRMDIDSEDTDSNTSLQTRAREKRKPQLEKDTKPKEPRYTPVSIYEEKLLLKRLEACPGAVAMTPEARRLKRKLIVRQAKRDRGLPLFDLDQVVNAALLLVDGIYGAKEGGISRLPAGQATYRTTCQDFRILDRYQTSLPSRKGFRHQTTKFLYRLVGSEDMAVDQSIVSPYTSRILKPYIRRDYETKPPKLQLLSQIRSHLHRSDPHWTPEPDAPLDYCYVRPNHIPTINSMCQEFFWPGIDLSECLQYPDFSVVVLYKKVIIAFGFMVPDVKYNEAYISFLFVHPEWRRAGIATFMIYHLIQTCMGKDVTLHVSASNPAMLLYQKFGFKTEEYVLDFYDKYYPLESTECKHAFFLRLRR
UniProt Q9HCC9: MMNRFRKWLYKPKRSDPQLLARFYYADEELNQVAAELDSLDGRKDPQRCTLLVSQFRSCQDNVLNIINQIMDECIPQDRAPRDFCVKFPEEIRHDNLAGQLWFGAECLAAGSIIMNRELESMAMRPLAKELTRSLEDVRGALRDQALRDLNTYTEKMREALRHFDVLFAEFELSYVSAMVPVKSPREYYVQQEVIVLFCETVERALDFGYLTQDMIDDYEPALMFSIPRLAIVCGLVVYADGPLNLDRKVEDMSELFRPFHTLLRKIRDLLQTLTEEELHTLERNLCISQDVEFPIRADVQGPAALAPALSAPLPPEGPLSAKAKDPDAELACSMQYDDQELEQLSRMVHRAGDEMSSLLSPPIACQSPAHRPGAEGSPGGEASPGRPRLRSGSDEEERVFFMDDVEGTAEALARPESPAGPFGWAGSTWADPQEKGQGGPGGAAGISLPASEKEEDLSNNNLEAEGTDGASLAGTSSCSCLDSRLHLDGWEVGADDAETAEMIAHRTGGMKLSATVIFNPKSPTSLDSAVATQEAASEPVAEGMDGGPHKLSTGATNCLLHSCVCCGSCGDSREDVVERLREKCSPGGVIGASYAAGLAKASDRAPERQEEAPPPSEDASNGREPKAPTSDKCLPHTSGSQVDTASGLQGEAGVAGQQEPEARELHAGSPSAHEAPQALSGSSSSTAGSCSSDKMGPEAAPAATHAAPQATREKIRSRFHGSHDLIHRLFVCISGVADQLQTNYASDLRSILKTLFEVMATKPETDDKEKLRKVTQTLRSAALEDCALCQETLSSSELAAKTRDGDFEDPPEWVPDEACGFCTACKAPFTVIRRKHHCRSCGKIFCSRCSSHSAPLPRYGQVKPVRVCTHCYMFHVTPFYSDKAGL
UniProt Q9H999: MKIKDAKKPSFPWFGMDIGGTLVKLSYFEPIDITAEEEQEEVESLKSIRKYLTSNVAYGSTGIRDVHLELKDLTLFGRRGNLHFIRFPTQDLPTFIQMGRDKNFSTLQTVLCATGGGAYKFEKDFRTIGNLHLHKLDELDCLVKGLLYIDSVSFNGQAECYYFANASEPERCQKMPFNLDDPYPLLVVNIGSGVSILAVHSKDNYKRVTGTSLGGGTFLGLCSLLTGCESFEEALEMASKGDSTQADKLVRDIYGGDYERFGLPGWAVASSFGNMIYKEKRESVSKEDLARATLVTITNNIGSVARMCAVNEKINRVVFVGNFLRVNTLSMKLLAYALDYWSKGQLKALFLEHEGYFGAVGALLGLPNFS
UniProt Q9H944: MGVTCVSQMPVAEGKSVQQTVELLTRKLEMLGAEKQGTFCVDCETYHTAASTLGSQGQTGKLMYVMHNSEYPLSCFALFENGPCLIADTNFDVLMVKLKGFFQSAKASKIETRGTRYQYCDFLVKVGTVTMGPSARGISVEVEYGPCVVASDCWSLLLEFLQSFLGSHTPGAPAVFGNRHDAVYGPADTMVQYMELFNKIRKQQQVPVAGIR
UniProt Q9H6V9: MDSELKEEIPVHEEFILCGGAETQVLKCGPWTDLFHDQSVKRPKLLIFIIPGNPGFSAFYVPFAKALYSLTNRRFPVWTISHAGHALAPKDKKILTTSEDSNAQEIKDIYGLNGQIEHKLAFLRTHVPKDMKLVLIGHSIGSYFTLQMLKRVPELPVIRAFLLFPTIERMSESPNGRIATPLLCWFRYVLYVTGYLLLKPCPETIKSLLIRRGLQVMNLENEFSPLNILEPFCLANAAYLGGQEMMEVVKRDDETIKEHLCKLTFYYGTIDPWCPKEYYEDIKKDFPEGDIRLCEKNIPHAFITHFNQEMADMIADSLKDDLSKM
UniProt Q9H9V9: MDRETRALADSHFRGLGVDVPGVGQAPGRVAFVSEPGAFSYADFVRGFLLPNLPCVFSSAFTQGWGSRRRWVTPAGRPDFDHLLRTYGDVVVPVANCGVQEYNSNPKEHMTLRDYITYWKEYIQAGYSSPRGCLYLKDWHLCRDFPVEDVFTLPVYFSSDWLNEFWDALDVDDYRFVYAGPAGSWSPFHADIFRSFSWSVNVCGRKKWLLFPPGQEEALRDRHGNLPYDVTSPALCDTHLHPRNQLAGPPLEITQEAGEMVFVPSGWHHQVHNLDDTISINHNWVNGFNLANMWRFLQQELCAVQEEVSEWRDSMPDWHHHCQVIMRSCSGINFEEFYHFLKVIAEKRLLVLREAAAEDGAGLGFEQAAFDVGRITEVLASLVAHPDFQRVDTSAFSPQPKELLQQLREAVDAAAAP
UniProt Q9H9S4: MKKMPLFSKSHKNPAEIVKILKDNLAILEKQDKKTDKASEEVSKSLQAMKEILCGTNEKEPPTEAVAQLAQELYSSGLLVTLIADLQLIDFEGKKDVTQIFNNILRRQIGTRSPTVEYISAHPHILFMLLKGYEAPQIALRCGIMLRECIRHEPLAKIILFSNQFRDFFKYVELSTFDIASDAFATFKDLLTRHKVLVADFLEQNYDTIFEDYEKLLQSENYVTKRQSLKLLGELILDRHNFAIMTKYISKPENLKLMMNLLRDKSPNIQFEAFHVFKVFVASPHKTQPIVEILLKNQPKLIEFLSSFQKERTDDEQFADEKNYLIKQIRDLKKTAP
UniProt Q9H9R9: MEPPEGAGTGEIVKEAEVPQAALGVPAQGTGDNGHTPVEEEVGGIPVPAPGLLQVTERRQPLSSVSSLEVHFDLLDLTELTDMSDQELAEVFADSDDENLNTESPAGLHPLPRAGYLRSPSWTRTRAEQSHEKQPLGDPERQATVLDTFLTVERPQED
UniProt Q9H9A7: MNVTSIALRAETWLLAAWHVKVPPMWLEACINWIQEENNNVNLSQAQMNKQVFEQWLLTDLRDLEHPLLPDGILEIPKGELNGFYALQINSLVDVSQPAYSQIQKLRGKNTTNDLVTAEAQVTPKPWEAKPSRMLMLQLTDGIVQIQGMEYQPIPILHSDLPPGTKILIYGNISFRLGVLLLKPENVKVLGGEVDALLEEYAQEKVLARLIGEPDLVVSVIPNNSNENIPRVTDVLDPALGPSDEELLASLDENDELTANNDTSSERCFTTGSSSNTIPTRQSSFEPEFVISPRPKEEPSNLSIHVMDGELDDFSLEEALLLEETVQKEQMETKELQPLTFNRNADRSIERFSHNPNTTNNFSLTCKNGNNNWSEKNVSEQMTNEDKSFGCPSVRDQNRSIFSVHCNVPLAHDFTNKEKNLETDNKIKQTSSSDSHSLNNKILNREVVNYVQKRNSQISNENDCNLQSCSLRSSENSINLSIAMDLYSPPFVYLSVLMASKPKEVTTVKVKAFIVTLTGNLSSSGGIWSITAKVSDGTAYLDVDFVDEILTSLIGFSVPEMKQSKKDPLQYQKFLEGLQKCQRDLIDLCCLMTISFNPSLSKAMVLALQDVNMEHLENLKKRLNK
UniProt Q9HBH9: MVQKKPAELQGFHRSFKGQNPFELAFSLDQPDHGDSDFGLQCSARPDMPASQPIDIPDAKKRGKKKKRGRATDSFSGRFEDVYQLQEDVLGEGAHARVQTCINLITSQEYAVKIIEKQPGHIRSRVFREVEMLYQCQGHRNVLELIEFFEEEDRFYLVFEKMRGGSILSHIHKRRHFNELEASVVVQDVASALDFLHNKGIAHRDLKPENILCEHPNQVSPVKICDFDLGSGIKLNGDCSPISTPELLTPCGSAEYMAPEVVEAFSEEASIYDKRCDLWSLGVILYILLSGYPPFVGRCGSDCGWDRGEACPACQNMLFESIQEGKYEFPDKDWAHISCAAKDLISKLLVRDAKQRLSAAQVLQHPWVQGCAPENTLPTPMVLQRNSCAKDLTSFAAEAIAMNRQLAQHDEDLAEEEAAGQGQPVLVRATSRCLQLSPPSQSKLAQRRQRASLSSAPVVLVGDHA
UniProt Q9H6E5: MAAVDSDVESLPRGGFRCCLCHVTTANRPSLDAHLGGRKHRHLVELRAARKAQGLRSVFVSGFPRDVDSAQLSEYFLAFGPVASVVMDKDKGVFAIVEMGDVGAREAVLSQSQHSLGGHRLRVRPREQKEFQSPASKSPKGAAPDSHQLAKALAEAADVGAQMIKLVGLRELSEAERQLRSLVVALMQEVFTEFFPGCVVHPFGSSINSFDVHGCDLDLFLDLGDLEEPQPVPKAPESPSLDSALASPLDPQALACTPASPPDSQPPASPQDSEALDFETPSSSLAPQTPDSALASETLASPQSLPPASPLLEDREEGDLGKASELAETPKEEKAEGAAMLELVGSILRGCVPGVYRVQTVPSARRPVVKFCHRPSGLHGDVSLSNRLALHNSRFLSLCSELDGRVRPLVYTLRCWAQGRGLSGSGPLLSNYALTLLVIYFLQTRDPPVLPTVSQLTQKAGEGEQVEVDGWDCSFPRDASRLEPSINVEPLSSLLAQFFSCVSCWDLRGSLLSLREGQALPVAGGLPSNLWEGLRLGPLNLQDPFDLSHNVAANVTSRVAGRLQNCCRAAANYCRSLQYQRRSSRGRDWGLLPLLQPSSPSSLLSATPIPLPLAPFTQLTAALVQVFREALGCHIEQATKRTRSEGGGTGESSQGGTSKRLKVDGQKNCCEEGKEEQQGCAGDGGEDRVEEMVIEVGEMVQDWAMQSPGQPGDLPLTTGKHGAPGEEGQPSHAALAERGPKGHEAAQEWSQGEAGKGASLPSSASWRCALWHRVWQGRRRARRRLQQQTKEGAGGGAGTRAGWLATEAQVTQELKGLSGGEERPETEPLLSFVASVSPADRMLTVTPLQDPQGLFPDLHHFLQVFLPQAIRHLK
UniProt Q9H7M9, whole entry: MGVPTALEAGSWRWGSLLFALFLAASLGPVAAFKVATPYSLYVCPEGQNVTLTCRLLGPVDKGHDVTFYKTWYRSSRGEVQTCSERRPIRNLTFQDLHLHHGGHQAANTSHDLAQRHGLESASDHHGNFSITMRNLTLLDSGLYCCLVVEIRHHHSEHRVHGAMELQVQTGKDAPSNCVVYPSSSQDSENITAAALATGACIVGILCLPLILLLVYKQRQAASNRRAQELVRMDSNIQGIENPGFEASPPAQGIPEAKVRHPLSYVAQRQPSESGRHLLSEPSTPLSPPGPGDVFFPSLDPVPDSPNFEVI
UniProt Q9H8K7: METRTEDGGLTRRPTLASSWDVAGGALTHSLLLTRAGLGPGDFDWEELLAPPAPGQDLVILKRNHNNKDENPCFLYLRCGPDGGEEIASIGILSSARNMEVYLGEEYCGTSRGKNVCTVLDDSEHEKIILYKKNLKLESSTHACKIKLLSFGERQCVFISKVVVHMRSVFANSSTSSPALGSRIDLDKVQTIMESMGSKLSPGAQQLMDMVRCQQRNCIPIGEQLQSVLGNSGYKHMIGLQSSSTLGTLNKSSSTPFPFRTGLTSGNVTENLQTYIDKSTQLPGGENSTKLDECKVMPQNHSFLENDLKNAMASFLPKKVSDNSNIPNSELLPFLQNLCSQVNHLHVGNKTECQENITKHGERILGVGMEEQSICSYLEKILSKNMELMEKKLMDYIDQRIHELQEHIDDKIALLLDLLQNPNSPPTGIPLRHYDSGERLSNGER
UniProt Q9H2J4: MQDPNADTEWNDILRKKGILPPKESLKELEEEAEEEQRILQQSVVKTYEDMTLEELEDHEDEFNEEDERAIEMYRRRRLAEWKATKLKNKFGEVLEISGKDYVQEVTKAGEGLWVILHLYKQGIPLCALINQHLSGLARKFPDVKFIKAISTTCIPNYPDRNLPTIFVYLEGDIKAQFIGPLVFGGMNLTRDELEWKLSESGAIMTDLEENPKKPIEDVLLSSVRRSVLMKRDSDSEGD

This is one part of the list. Small differences around the control level are noise.

Compound in the experiment: Cc1nc(Nc2ncc(C(=O)Nc3c(C)cccc3Cl)s2)cc(N2CCN(CCO)CC2)n1 [dasatinib]
Nature of the experiment: log2 fold change of tryptic peptide abundance, ligand vs vehicle (limited proteolysis) (log2 ratio); higher = more trypsin-susceptible (destabilized). Conditions: ligand concentration: 5 uM; sample: K562 cleared lysate.
As to “SLC38A1 (peptide sequence: SLTNSHLEK, peptide start residue: 52) (UniProt Q9H2H9)”, the log2 fold change is -0.125.

Take “ZNF552 (peptide sequence: SFTHSSTFR, peptide start residue: 332) (UniProt Q9H707)”: the log2 fold change was 0.561.

For the target “UniProt Q9H8E8 (peptide sequence: NPVESAMELK, peptide start residue: 250)”, the log2 fold change worked out at 0.465.

In the case of “WNK1 (peptide sequence: FYDSWESTVK, peptide start residue: 283) (UniProt Q9H4A3)”, the log2 fold change was -0.187.

Consider “ZFYVE28 (peptide sequence: VCTHCYMFHVTPFYSDK, peptide start residue: 868) (UniProt Q9HCC9)”, for which the log2 fold change is 0.778.

For the target “UniProt Q9HC36 (peptide sequence: ASDHGWVCDQR, peptide start residue: 302)”, the log2 fold change came to 0.163.

Consider “PANK3 (peptide sequence: ESVSKEDLAR, peptide start residue: 282) (UniProt Q9H999)”, for which the log2 fold change was -0.643.

In the case of “FANCE (peptide sequence: GWEPFDWGR, peptide start residue: 54) (UniProt Q9HB96)”, the log2 fold change is -0.212.

“MED20 (peptide sequence: SVQQTVELLTR, peptide start residue: 16) (UniProt Q9H944)”: the log2 fold change is -0.038.

On to “UniProt Q9H7Z3 (peptide sequence: NVFHLVMPLFSGKEK, peptide start residue: 715)”, for which the log2 fold change is -0.728.

Consider “UniProt Q9H6V9 (peptide sequence: DDETIKEHLCK, peptide start residue: 252)”, for which the log2 fold change is -0.432.

In the case of “TRIOBP (peptide sequence: LSEEIDQLR, peptide start residue: 2251) (UniProt Q9H2D6)”, the log2 fold change amounted to 0.212.

As for “JMJD4 (peptide sequence: VDTSAFSPQPK, peptide start residue: 437) (UniProt Q9H9V9)”, the log2 fold change was -0.577.

For “CAB39L (peptide sequence: VFVASPHKTQPIVEILLK, peptide start residue: 279) (UniProt Q9H9S4)”, the log2 fold change turned out to be 0.389.

Consider “DBNDD1 (peptide sequence: AEQSHEKQPLGDPER, peptide start residue: 127) (UniProt Q9H9R9)”, for which the log2 fold change was determined as 0.059.

For “HEATR1 (peptide sequence: LSPDGGKIPK, peptide start residue: 1266) (UniProt Q9H583)”, the log2 fold change is -0.156.

As to “EPS8L2 (peptide sequence: KAPAEGVLTLR, peptide start residue: 295) (UniProt Q9H6S3)”, the log2 fold change is -0.169.

Take “TNS1 (peptide sequence: AGSLPNYATINGK, peptide start residue: 1502) (UniProt Q9HBL0)”: the log2 fold change was -0.125.

As for “RMI1 (peptide sequence: QSSFEPEFVISPRPK, peptide start residue: 282) (UniProt Q9H9A7)”, the log2 fold change was -0.219.

“UniProt Q9HBH9 (peptide sequence: DLKPENILCEHPNQVSPVK, peptide start residue: 205)”: the log2 fold change was -0.377.

For the target “TUT1 (peptide sequence: HGAPGEEGQPSHAALAER, peptide start residue: 721) (UniProt Q9H6E5)”, the log2 fold change stood at 0.168.

Turning to “UniProt Q9H7M9 (peptide sequence: VRHPLSYVAQR, peptide start residue: 259)”, the log2 fold change is -0.141.

On to “PLEKHF2 (peptide sequence: SFAVYAATATEKSEWMNHINK, peptide start residue: 108) (UniProt Q9H8W4)”, for which the log2 fold change came to 0.215.

Turning to “CLSPN (peptide sequence: GPSFMTSPSPK, peptide start residue: 1308) (UniProt Q9HAW4)”, the log2 fold change was -0.881.

Take “UniProt Q9H8K7 (peptide sequence: SSSTPFPFR, peptide start residue: 252)”: the log2 fold change was -0.148.

As to “UniProt Q9H5X1 (peptide sequence: HKLEIYISEGTHSTEEDINK, peptide start residue: 112)”, the log2 fold change came out at 0.286.

With “PDCL3 (peptide sequence: DYVQEVTK, peptide start residue: 101) (UniProt Q9H2J4)”, the log2 fold change was -0.126.

As for “DHX36 (peptide sequence: SSGGGYGGGPAGGHGGNR, peptide start residue: 17) (UniProt Q9H2U1)”, the log2 fold change was -0.29.
